Results: paper PMC10912283
These are yes or no findings as the source states them, for the method shown. In cells and extracts the contact can be indirect. Some binding calls cover weakened binding; strength is not graded here.

By UniProt entry, the sequences of proteins in these tests, tags left out.
UniProt P27695: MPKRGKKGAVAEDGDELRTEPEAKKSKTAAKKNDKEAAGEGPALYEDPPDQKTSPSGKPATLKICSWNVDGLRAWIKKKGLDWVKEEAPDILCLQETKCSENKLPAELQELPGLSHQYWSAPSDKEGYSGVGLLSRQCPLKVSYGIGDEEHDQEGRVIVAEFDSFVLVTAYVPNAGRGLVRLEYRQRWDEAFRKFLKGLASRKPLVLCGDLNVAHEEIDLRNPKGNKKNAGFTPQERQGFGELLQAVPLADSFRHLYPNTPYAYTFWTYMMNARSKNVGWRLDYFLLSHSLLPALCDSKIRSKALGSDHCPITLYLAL
UniProt Q13283: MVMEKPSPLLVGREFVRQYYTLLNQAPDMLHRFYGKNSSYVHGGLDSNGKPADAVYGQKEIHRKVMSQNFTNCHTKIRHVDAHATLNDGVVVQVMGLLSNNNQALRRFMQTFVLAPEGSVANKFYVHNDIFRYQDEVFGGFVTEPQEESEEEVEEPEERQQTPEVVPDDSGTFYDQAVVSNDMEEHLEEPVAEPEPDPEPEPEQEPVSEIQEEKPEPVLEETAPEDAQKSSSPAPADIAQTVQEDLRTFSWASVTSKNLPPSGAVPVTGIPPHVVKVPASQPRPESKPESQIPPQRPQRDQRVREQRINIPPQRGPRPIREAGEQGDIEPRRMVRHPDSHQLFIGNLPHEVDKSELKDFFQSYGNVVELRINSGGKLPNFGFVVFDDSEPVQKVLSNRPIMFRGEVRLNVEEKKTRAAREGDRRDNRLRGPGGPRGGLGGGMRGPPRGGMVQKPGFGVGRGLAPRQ
UniProt P67809: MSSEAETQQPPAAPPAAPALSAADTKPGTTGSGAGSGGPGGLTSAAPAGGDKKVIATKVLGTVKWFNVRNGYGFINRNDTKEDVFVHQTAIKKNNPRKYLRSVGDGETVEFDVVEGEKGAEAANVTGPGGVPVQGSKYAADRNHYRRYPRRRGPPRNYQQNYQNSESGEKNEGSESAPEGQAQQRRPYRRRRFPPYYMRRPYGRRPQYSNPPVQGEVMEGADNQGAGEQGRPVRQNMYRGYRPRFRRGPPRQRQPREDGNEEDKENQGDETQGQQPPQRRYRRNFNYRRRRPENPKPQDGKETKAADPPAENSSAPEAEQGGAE

Experiments:
[1] = target: Apurinic/apyrimidinic endodeoxyribonuclease 1 (APE1) (human (endogenous in SKOV3)) (UniProt P27695); experiment: co-IP; cytoplasmic fraction of SKOV3 cells obtained by subcellular fractionation, anti-APE1 antibody, Western blot with anti-YBX1 and anti-G3BP1
[2] = target: Apurinic/apyrimidinic endodeoxyribonuclease 1 (APE1) (human (endogenous in SKOV3)) (UniProt P27695); experiment: co-IP; SKOV3 cell lysate, anti-APE1 antibody and agarose beads at 4 °C overnight, Western blot with anti-YBX1 and anti-G3BP1; untreated cells and cells exposed to H2O2 for increasing times (more YBX1 and G3BP1 co-precipitated upon treatment, particularly after 4 h)

| binding [1] | binding [2] | Substance |
| --- | --- | --- |
| binds | binds | G3BP1 (from UniProt Q13283 1-466) |
| binds | binds | Y-Box binding protein 1 (YBX1) (from UniProt P67809 1-324) |
